# Assay results published in patent US8084602B2, “Porphyrin derivatives and their use in photodynamic therapy” (Destiny Pharma Limited, priority 2002, dated 2011).
# Test system: E. coli cells
# Assay: Binding of compounds with bacterial cells
# Type: cell-based
# Conditions: 5 min incubation
smiles,measurement,setting,value
"CN(C)CCC[N+](C)(C)CCCOc1ccc(-c2c3nc(cc4ccc([nH]4)c(-c4ccc(OCCC[N+](C)(C)CCCN(C)C)cc4)c4nc(cc5ccc2[nH]5)C=C4)C=C3)cc1.[Cl-].[Cl-] [Compound 8, 5,15-bis-(4-{3-[(3-Dimethylamino-propyl)-dimethylammonio]-propyloxy}-phenyl)-porphyrin dichloride]",Bound compound (nmoles/mg cell proteins),"0.01 μM, 0 washings",0.024 ± 0.01 nmoles/mg cell proteins
same,Bound compound (nmoles/mg cell proteins),"0.01 μM, 3 washings",0.009 ± 0.001 nmoles/mg cell proteins
same,Bound compound (nmoles/mg cell proteins),"0.1 μM, 0 washings",0.056 ± 0.02 nmoles/mg cell proteins
same,Bound compound (nmoles/mg cell proteins),"0.1 μM, 3 washings",0.030 ± 0.02 nmoles/mg cell proteins
same,Bound compound (nmoles/mg cell proteins),"0.5 μM, 0 washings",0.522 ± 0.2 nmoles/mg cell proteins
same,Bound compound (nmoles/mg cell proteins),"0.5 μM, 3 washings",6.274 ± 0.15 nmoles/mg cell proteins
same,Bound compound (nmoles/mg cell proteins),"1 μM, 0 washings",3.670 ± 0.7 nmoles/mg cell proteins
same,Bound compound (nmoles/mg cell proteins),"1 μM, 3 washings",2.230 ± 0.8 nmoles/mg cell proteins
